From PubChem BioAssay AID445 (National Center for Advancing Translational Sciences (NCATS), 2006)
Where “and” joins values, the source holds several entries; their conditions need not be identical. Equal entries are not always repeated. The list shows a part of the results. Further columns of the screen follow, without active or inactive calls. The list favours compounds with an active or inconclusive main result. Potencies come from curve fits of mixed quality, noted in brackets.

Assay: IkB Signaling
Settings: ABC-DLBCL IkBa-CBG/CBR dual luciferase ratio (green luciferase fused to IkBa over red control in OCI-Ly3 lymphoma cells), 4 h
How it was run: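 Luminescence ratio of IκBα-fused green versus native red beetle luciferase in OCI-Ly3 cells, 4 h post-doxycycline with compound; red signal alone, scaled from basal (0%) to zero light (-100%), flagged nonspecific or cytotoxic effects.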

[1] = measured here: control luc red channel unless noted
[2] = measured here: IkB-luc green channel
[3] = measured here: control luc red channel

## CC(=O)c1cccc(NC(=O)COc2ccc(S(=O)(=O)N3CCCCC3)cc2)c1
[1]
  AC50: 12.6 µM [falling, partial curve]

## CCCCc1nn2c(=O)cc(COC(=O)c3cccc(NC(=O)c4cccc(C)c4)c3)nc2s1
[1]
  AC50: 7.94 µM [falling, partial curve]

## Cc1c(Cl)cccc1NC(=O)Cn1nc(C(F)(F)F)c2c1CCC2
[1]
  AC50: 12.6 µM [falling, partial curve]

## COc1ccc(-c2cc3nc4c(c(N5CCC6(CC5)OCCO6)n3n2)CCCC4)cc1
[1]
  AC50: 12.6 µM [falling, partial curve]

## O=C1CCCCCN1Sc1ccccc1
[2]
  AC50: 31.6 µM [rising, partial curve]
[3]
  AC50: 15.8 µM [rising, partial curve]

## Cc1cc(C)n(-c2nc3ccccc3nc2Nc2cccc(C(=O)NCCc3ccccc3)c2)n1
[1]
  AC50: 25.1 µM [falling, partial curve, poor fit]

## CCOc1ccc(CNc2ccc3c(c2)nc(C)n3C)cc1
[1]
  AC50: 10 µM [falling, partial curve]

## Nc1c(NCCCN2CCOCC2)c2ccccc2oc1=O
[1]
  AC50: 7.94 µM [falling, full curve]

## Cc1ccc(NC(=O)C2CCCN(S(=O)(=O)c3cccc4cccnc34)C2)c(Br)c1 (stereo not drawn)
[1]
  AC50: 39.8 µM [falling, single point]

## Cn1cc(S(=O)(=O)N2CCCCCC2)cc1C(=O)NCc1ccc(Cl)cc1
[1]
  AC50: 39.8 µM [falling, single point]

## CC1=C(C(=O)Nc2ccccc2)C(c2cccc(O)c2)n2nc(-c3ccccc3Cl)nc2N1 (stereo not drawn)
[1]
  AC50: 15.8 µM [falling, single point]

## COc1ccccc1-c1nn2c(=O)cc(CN3CCN(S(=O)(=O)c4ccc(C)cc4)CC3)nc2s1
[1]
  AC50: 0.0501 µM [falling, full curve, poor fit]

## Brc1ccc(CNCCCSc2nnnn2-c2ccccc2)cc1
[1]
  AC50: 0.794 µM [falling, full curve, poor fit]

## CCOC(=O)Cc1csc(NC(=O)CSc2ncnc3c2cnn3-c2ccc(OC)cc2)n1
[2]
  AC50: 6.31 µM [falling, partial curve]
[3]
  AC50: 3.16 µM [falling, full curve]

## CC(=O)Nc1ccc(C)cc1-c1nc2ccccc2n(CC(=O)c2ccc(Cl)cc2)c1=O
[1]
  AC50: 6.31 µM [rising, partial curve, poor fit]

## COc1cccc2cc(-c3cn4c(n3)sc3cc(F)ccc34)c(=O)oc12
[1]
  AC50: 0.501 µM [falling, full curve]

## CC(=O)N(Cc1cccnc1)c1nc2ccc(F)cc2s1
[1]
  AC50: 1 µM [rising, full curve, poor fit]

## COc1cccc(-c2nc(Cc3ccc(OC)c(OC)c3)no2)c1
[1]
  AC50: 15.8 µM [falling, single point]

## COc1ccc(C(=O)NCC(c2cccs2)S(=O)(=O)c2ccc(F)c(C)c2)cc1 (stereo not drawn)
[1]
  AC50: 39.8 µM [falling, single point]

## CCOc1ccc(-c2noc(CSc3nnc(-c4ccccc4)n3-c3ccccc3)n2)cc1
[1]
  AC50: 0.0316 µM [falling, full curve]

## CC[C@@H]1CN2CCc3cc(OC)c(OC)cc3[C@H]2C[C@@H]1C[C@H]1NCCc2cc(OC)c(OC)cc21
[1]
  AC50: 316 nM [falling, full curve] and 158 nM [falling, full curve]

## CCC(CC)C(=O)Nc1ccc(C(=O)OCc2cc(=O)n3nc(C4CC4)sc3n2)cc1
[1]
  AC50: 25.1 µM [falling, single point]

## O=C(NCc1ccccc1Cl)c1cccn1-c1nnc(N2CCCCC2)s1
[1]
  AC50: 20 µM [falling, partial curve, poor fit]

## NCCCc1ccc2oc3ccccc3c2c1
[1]
  AC50: 0.631 µM [falling, full curve]

## O=C(CSc1nnc(Cn2nnc(-c3ccccc3)n2)n1-c1ccccc1)Nc1ccc(F)cc1
[1]
  AC50: 5.01 µM [falling, partial curve]

## C#CCn1c(/C=C/c2ccc(Cl)cc2)nc2ccccc21
[1]
  AC50: 31.6 µM [falling, single point]

## Brc1c(OCCOCCn2cncn2)ccc2ccccc12
[1]
  AC50: 6.31 µM [rising, single point] [measured here: IkB-luc green channel]

## CCN(c1ccc(OC)cc1)S(=O)(=O)c1nnc(NC(=O)COc2ccc(F)cc2)s1
[1]
  AC50: 15.8 µM [falling, single point]

## CC(C)CC(=O)NCC(c1ccc2c(c1)OCO2)N1CCN(c2ccccc2F)CC1 (stereo not drawn)
[1]
  AC50: 0.0126 µM [falling, full curve, poor fit]

## COC(=O)[C@H]1[C@@H]2C[C@H]3c4[nH]c5ccccc5c4CCN3C[C@@H]2CC[C@@H]1O
[1]
  AC50: 31.6 µM [falling, partial curve]

## N#C/C(=C(/O)COC(=O)c1ccc2c(c1)OCCO2)c1nc2ccccc2[nH]1
[2]
  AC50: 31.6 µM [rising, single point]
[3]
  AC50: 15.8 µM [falling, partial curve]

## Cc1oc2c(cc(NS(=O)(=O)c3ccc(Br)cc3)c3ccccc32)c1C(=O)OCc1ccccc1
[1]
  AC50: 3.98 µM [falling, partial curve]

## CN(C)c1ccc(C(=O)Nc2sc(Nc3ccccc3)nc2C(N)=O)cc1
[1]
  AC50: 0.794 µM [falling, full curve]

## COc1ccc(Cn2c(CCC(=O)Nc3ccc(Br)c(C)c3)nc3cccnc32)cc1
[1]
  AC50: 15.8 µM [falling, partial curve]

## COc1ccc2[nH]cc(CCNc3nc(-c4cccc(C#N)c4)nc4ccccc34)c2c1
[1]
  AC50: 5.01 µM [falling, single point] [measured here: IkB-luc green channel]

## CC1Cc2cc(S(=O)(=O)CCC(=O)Nc3cccc(F)c3)ccc2N1C(=O)C1CC1 (stereo not drawn)
[1]
  AC50: 1 µM [rising, partial curve]

## CCOC(=O)C1CCC(CN(Cc2ccc(OC)cc2)S(=O)(=O)c2ccc(C)cc2)CC1 (stereo not drawn)
[1]
  AC50: 20 µM [falling, single point]

## O=C(Nc1cc(Cl)cc(Cl)c1)c1ccc(F)c(S(=O)(=O)N2CCCC2)c1
[1]
  AC50: 20 µM [falling, partial curve]

## COC(=O)c1ccccc1NC(=O)c1cc2ccccn2n1
[1]
  AC50: 15.8 µM [falling, partial curve]

## O=C(Cn1ncn2c(cc3cc(F)ccc32)c1=O)NC1CCCCC1
[1]
  AC50: 3.16 µM [falling, partial curve]

## COc1ccc(Nc2ncnc3scc(-c4ccc(F)cc4)c23)cc1
[1]
  AC50: 39.8 µM [falling, single point]

## COc1ccc(NC(=O)c2sc3nc(C)c(C(=O)Nc4ccc(C)cc4C)c(-c4sccc4C)c3c2N)cc1
[1]
  AC50: 20 µM [falling, partial curve, poor fit]

## Cn1cccc1Cc1nnc(SCC(=O)Nc2cccc(Cl)c2)n1-c1ccc(F)cc1
[1]
  AC50: 12.6 µM [falling, partial curve]

## CCc1c(CN2CCN(c3ccc(F)cc3)CC2)csc1C
[1]
  AC50: 31.6 µM [falling, single point]

## O=S(=O)(c1ccccc1F)N(Cc1ccco1)Cc1nnc(-c2ccccc2Br)o1
[1]
  AC50: 15.8 µM [falling, partial curve]

## COc1ccccc1-c1cc(C(F)(F)F)nc(S(=O)(=O)CCCC(=O)Nc2ccccc2F)n1
[1]
  AC50: 2.51 µM [falling, full curve]

## O=C(COc1ccc(Cl)cc1)NCCc1csc(-c2ccc(C(F)(F)F)cc2)n1
[1]
  AC50: 39.8 µM [falling, single point]

## COc1cc2c(cc1NC(=O)COc1cc(C)cc(C)c1)oc1ccccc12
[1]
  AC50: 10 µM [falling, partial curve]

## CCOC(=O)N1CCC(NC(=O)c2cnn(-c3ccc(C)cc3)c2-n2cccc2)CC1
[1]
  AC50: 5.01 µM [rising, partial curve]

## O=C(NCc1ccccn1)C1CCCN(S(=O)(=O)c2ccc(Br)cc2)C1 (stereo not drawn)
[1]
  AC50: 15.8 µM [falling, partial curve]

## COc1ccccc1-n1cnnc1SCC(=O)Nc1ncc(Cl)cc1Cl
[1]
  AC50: 12.6 µM [falling, partial curve]

## COc1ccc(NC(=O)c2cnc(N3CCOCC3)c3ccccc23)cc1OC
[1]
  AC50: 0.00631 µM [falling, full curve, poor fit]

## COc1cccc(CCNC(=O)c2ccc(Cn3c(SCc4ccccc4)nc4cccnc43)cc2)c1
[1]
  AC50: 10 µM [falling, partial curve]

## Cc1cccn2c(=O)c3cc(C(=O)NC(C)C)n(C)c3nc12
[1]
  AC50: 39.8 µM [falling, single point]

## COc1cccc(N2CCN(CC(=O)Nc3nc4c(s3)CC(C)CC4)CC2)c1 (stereo not drawn)
[1]
  AC50: 15.8 µM [falling, partial curve]

## COc1ccc(-c2nc3ccccc3n2Cc2ccc(C(C)C)cc2)cc1
[1]
  AC50: 25.1 µM [falling, partial curve]

## CCOc1ccc(NC(=O)Cn2cc(C(=O)c3ccc(F)cc3)c(=O)c3cc4c(cc32)OCO4)cc1
[1]
  AC50: 39.8 µM [rising, single point] [measured here: IkB-luc green channel]

## Cc1nn2c(=O)cc(COC(=O)c3ccc(NC(=O)CCc4ccccc4)cc3)nc2s1
[1]
  AC50: 10 µM [falling, single point]

## Cc1cccc(OCCn2c(SCC(N)=O)nc3ccccc32)c1
[1]
  AC50: 6.31 µM [rising, partial curve]

## CCc1noc(-c2ccc(N3CCC(C)CC3)c([N+](=O)[O-])c2)n1
[1]
  AC50: 0.316 µM [rising, full curve]
